Amino acid sequences for entries named in this document (tags omitted). Residues count along the entry.
UniProt P54132, 642-1290: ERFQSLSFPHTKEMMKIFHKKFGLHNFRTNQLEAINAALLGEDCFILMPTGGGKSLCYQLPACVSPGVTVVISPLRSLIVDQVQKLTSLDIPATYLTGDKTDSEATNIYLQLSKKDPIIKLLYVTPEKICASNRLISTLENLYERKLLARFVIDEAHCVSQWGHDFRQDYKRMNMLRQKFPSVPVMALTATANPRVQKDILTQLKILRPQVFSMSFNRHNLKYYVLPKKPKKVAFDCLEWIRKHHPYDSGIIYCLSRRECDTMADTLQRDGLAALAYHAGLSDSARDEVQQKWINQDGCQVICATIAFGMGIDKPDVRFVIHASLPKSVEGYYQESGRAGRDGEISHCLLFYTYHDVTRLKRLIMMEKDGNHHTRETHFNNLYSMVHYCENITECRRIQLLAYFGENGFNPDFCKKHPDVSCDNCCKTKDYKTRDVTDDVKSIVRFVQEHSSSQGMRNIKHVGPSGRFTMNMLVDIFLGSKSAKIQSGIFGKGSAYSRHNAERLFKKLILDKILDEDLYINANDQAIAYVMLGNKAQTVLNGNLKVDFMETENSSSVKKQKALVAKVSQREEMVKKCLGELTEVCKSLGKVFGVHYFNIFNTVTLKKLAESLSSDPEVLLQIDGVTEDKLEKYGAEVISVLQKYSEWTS

In article PMC9736344, “Discovery of a Novel Bloom’s Syndrome Protein (BLM) Inhibitor Suppressing Growth and Metastasis of Prostate Cancer” (International Journal of Molecular Sciences, 2022):

Target: BLM642-1290 helicase core (UniProt P54132)
Experiment: fluorescence anisotropy
Settings: 20 mM Tris, 25 mM NaCl, 3 mM MgCl2, 0.1 mM DTT, pH 7.9, 2 nM FAM-DNA, 500 nM BLM642-1290, FP temperature not stated, recombinant protein, residues 642-1290; for binding result: no inhibitor; for binding signal (% inhibition of binding): 50 uM AO/854, 3 mM Mg2+

| Sequence | binding result (500 nM protein, 2 nM DNA, 3 mM Mg2+, label: 3'-FAM on A2) | binding signal (20 uM AO/854 (Table S2, Methods state 10 uM), 3 mM Mg2+, label: 3'-FAM on A2, scale: % DNA binding activity relative to no compound) | binding signal (% inhibition of binding) (label: 3'-FAM on A2) | binding signal (% inhibition of binding) (label: 3'-FAM, single-stranded DNA) | binding result (3 mM Mg2+, label: 3'-FAM, single-stranded DNA) |
| --- | --- | --- | --- | --- | --- |
| AATCCGTCGAGCAGTTTAGGTTAGGTTAGTTTTTT / CCTAACTCTGCTCGACGGATT [A1A2 dsDNA (forked duplex)] | binds | 31.5 | 84.5 |  |  |
| CCTAACTCTGCTCGACGGATT [ssDNA (A2 presumed)] |  |  |  | 82.8 | binds |

The exact form of at least one protein or probe is not confirmed. At least one verdict rests on a figure or table, not on a statement of the authors.
